Measurements as given in PubChem BioAssay AID250 (DTP/NCI, 2004).
The list is a part of this screen's results and no random one: it gathers tests that were run many times, whatever their T/C, doses with no T/C, and many T/C values between a quarter and a half above the control. Other doses and runs of a compound stand elsewhere. T/C is the treated group as % of the vehicle group. Some doses have a count of surviving animals in place of a T/C: the source holds a T/C of zero for them, seemingly a mark for toxic or unscored doses. Some doses without a T/C left all or most animals alive at the check, yet need not have been tolerated: the source hardly ever lists a survival T/C far under the control, and the zero likely stands for such cases as well. Survivors were counted at the toxicity check, usually on the fifth day, unless a day is given; later deaths do not show. Schedule codes are those of the source, taken here to give the interval after Q, in days (D) or hours (H), and the number of doses after X. Some schedules carry Z or #; the key to these is not given. Some entries were tested several times; the results are listed from low to high.

Test system: BDF1 mice, L1210 leukemia sc, survival T/C
Assay: NCI In Vivo Anticancer Drug Screen. Data for tumor model L1210 Leukemia (subcutaneous) in B6D2F1 (BDF1) mice
Conditions: higher T/C = longer survival
Method: The antitumor activity of compounds was measured in mice bearing transplantable tumors. Survival or tumor size were measured and the results are expressed as the measurement made in the treated group (T) divided by the measurement made in the vehicle treated control group (C). The tumor model used in this assay is L1210 Leukemia (subcutaneous) in B6D2F1 (BDF1) mice

[1] = T/C endpoint: median survival time, dose: 3.0 mg/kg/injection, schedule: Q01DX Z (sc), vehicle: methylcellulose (MC)
[2] = T/C endpoint: median survival time, dose: 3.0 mg/kg/injection, schedule: Q01DX Z (sc), vehicle: water
[3] = T/C endpoint: median survival time, dose: 5.0 mg/kg/injection, schedule: Q01DX Z (sc), vehicle: methylcellulose (MC)
[4] = T/C endpoint: median survival time, dose: 8.4 mg/kg/injection, schedule: Q01DX Z (sc), vehicle: methylcellulose (MC)
[5] = T/C endpoint: median survival time, dose: 14.0 mg/kg/injection, schedule: Q01DX Z (sc), vehicle: methylcellulose (MC)
[6] = T/C endpoint: median survival time, dose: 14.0 mg/kg/injection, schedule: Q01DX Z (sc), vehicle: water
[7] = T/C endpoint: median survival time, dose: 23.0 mg/kg/injection, schedule: Q01DX Z (sc), vehicle: methylcellulose (MC)
[8] = T/C endpoint: median survival time, dose: 23.0 mg/kg/injection, schedule: Q01DX Z (sc), vehicle: water
[9] = T/C endpoint: median survival time, dose: 39.0 mg/kg/injection, schedule: Q01DX Z (sc), vehicle: methylcellulose (MC)
[10] = T/C endpoint: median survival time, dose: 39.0 mg/kg/injection, schedule: Q01DX Z (sc), vehicle: water
[11] = T/C endpoint: median survival time, dose: 65.0 mg/kg/injection, schedule: Q01DX Z (sc), vehicle: methylcellulose (MC)
[12] = T/C endpoint: median survival time, dose: 65.0 mg/kg/injection, schedule: Q01DX Z (sc), vehicle: water
[13] = T/C endpoint: median survival time, dose: 300.0 mg/kg/injection, schedule: Q01DX Z (sc), vehicle: methylcellulose (MC)
[14] = T/C endpoint: median survival time, dose: 108.0 mg/kg/injection, schedule: Q01DX Z (sc), vehicle: methylcellulose (MC)
[15] = T/C endpoint: median survival time, dose: 180.0 mg/kg/injection, schedule: Q01DX Z (sc), vehicle: methylcellulose (MC)
[16] = T/C endpoint: median survival time, dose: 39.0 mg/kg/injection, schedule: Q01DX Z (sc), vehicle: saline
[17] = T/C endpoint: median survival time, dose: 108.0 mg/kg/injection, schedule: Q01DX Z (sc), vehicle: water
[18] = T/C endpoint: median survival time, dose: 500.0 mg/kg/injection, schedule: Q01DX Z (sc), vehicle: methylcellulose (MC)

ClCCN(CCCl)CCNc1ccnc2cc(Cl)ccc12
survivor count (T/C endpoint: median survival time, dose: 0.65 mg/kg/injection, schedule: Q01DX Z (sc), vehicle: water): 5 of 10
survivor count (T/C endpoint: median survival time, dose: 1.08 mg/kg/injection, schedule: Q01DX Z (sc), vehicle: methylcellulose (MC)): 3 of 10
survivor count (T/C endpoint: median survival time, dose: 1.08 mg/kg/injection, schedule: Q01DX Z (sc), vehicle: olive oil, sesame oil, peanut oil): 4 of 10
survivor count (T/C endpoint: median survival time, dose: 1.08 mg/kg/injection, schedule: Q01DX Z (sc), vehicle: water): 5 of 10
survivor count (T/C endpoint: median survival time, dose: 1.8 mg/kg/injection, schedule: Q01DX Z (sc), vehicle: methylcellulose (MC)): 6 of 10
survivor count (T/C endpoint: median survival time, dose: 1.8 mg/kg/injection, schedule: Q01DX Z (sc), vehicle: olive oil, sesame oil, peanut oil): 5 of 10
survivor count (T/C endpoint: median survival time, dose: 1.8 mg/kg/injection, schedule: Q01DX Z (sc), vehicle: water): 4 of 10 and 5 of 10
survivor count [1]: 5 of 10
survivor count (T/C endpoint: median survival time, dose: 3.0 mg/kg/injection, schedule: Q01DX Z (sc), vehicle: olive oil, sesame oil, peanut oil): 5 of 10
survivor count [2]: 4 of 10
survivor count [3]: 3 of 10
survivor count (T/C endpoint: median survival time, dose: 5.0 mg/kg/injection, schedule: Q01DX Z (sc), vehicle: olive oil, sesame oil, peanut oil): 4 of 10
survivor count (T/C endpoint: median survival time, dose: 5.0 mg/kg/injection, schedule: Q01DX Z (sc), vehicle: water): 5 of 10 and 6 of 10
survivor count [4]: 4 of 10
survivor count (T/C endpoint: median survival time, dose: 8.4 mg/kg/injection, schedule: Q01DX Z (sc), vehicle: olive oil, sesame oil, peanut oil): 4 of 10
survivor count (T/C endpoint: median survival time, dose: 8.4 mg/kg/injection, schedule: Q01DX Z (sc), vehicle: water): 4 of 10
survivor count [5]: 5 of 10
survivor count (T/C endpoint: median survival time, dose: 14.0 mg/kg/injection, schedule: Q01DX Z (sc), vehicle: olive oil, sesame oil, peanut oil): 1 of 10
survivor count [6]: 3 of 10 and 5 of 10
survivor count [7]: 3 of 10
survivor count (T/C endpoint: median survival time, dose: 23.0 mg/kg/injection, schedule: Q01DX Z (sc), vehicle: olive oil, sesame oil, peanut oil): 4 of 10
survivor count [8]: 3 of 10
survivor count [9]: 2 of 10
survivor count (T/C endpoint: median survival time, dose: 39.0 mg/kg/injection, schedule: Q01DX Z (sc), vehicle: olive oil, sesame oil, peanut oil): 6 of 10
survivor count [10]: 2 of 10
survivor count [11]: 0 of 10
survivor count [12]: 0 of 10

COc1cc2c3c(c4ccc(OC)c(OC)c4c2cc1OC)CN1CCC[C@@H]1C3
survivor count (T/C endpoint: median survival time, dose: 39.0 mg/kg/injection, schedule: Q01DX Z (sc), vehicle: carboxymethylcellulose (CMC)): 5 of 8

CSc1ncnc2nc[nH]c12
survivor count [13]: 3 of 10

O=S(=O)(c1ccc(O)cc1)c1ccc(O)cc1
survivor count [5]: 6 of 10
survivor count [7]: 5 of 10
survivor count [9]: 6 of 10
survivor count [11]: 6 of 10
survivor count [14]: 4 of 10
survivor count [15]: 6 of 10
survivor count [13]: 3 of 10

O=C(Nc1ccc(C2=NCCN2)cc1)c1ccc(C(=O)Nc2ccc(C3=NCCN3)cc2)cc1
survivor count (T/C endpoint: median survival time, dose: 8.4 mg/kg/injection, schedule: Q01DX Z (sc), vehicle: saline): 4 of 10
survivor count (T/C endpoint: median survival time, dose: 14.0 mg/kg/injection, schedule: Q01DX Z (sc), vehicle: saline): 4 of 10
survivor count [16]: 5 of 10
survivor count [12]: 6 of 10
survivor count [17]: 4 of 10
survivor count (T/C endpoint: median survival time, dose: 180.0 mg/kg/injection, schedule: Q01DX Z (sc), vehicle: water): 6 of 10
survivor count (T/C endpoint: median survival time, dose: 500.0 mg/kg/injection, schedule: Q01DX Z (sc), vehicle: water): 6 of 10

OCC1OC(n2cnc3cc(Cl)c(Cl)cc32)C(O)C1O (stereo not given)
survivor count (T/C endpoint: median survival time, dose: 840.0 mg/kg/injection, schedule: Q01DX Z (sc), vehicle: methylcellulose (MC)): 6 of 10

CC(=O)Nc1ccc2nc3ccc(NC(C)=O)cc3[n+](-c3ccccc3)c2c1
survivor count [1]: 2 of 8
survivor count [3]: 3 of 8
survivor count [4]: 5 of 8
survivor count [5]: 5 of 8
survivor count [9]: 5 of 8
survivor count [14]: 3 of 8

CCOc1ccc(Nc2ncnc3nc[nH]c23)cc1CN(CCCl)CCCl
survivor count (T/C endpoint: median survival time, dose: 23.0 mg/kg/injection, schedule: Q01DX Z (sc), vehicle: saline): 4 of 10
survivor count [16]: 6 of 10
survivor count (T/C endpoint: median survival time, dose: 65.0 mg/kg/injection, schedule: Q01DX Z (sc), vehicle: saline): 5 of 10
survivor count (T/C endpoint: median survival time, dose: 108.0 mg/kg/injection, schedule: Q01DX Z (sc), vehicle: saline): 0 of 10
survivor count (T/C endpoint: median survival time, dose: 180.0 mg/kg/injection, schedule: Q01DX Z (sc), vehicle: saline): 1 of 10
survivor count (T/C endpoint: median survival time, dose: 300.0 mg/kg/injection, schedule: Q01DX Z (sc), vehicle: saline): 0 of 10
survivor count (T/C endpoint: median survival time, dose: 500.0 mg/kg/injection, schedule: Q01DX Z (sc), vehicle: saline): 0 of 10

CCNC(=O)c1cccnc1
survivor count [6]: 6 of 10
survivor count [8]: 6 of 10
survivor count [10]: 6 of 10
survivor count [12]: 6 of 10
survivor count [17]: 5 of 10

c1ccc2[nH]cnc2c1
survivor count (T/C endpoint: median survival time, dose: 23.4 mg/kg/injection, schedule: Q01DX Z (sc), vehicle: other): 3 of 10
survivor count (T/C endpoint: median survival time, dose: 39.0 mg/kg/injection, schedule: Q01DX Z (sc), vehicle: other): 3 of 10
survivor count (T/C endpoint: median survival time, dose: 65.0 mg/kg/injection, schedule: Q01DX Z (sc), vehicle: other): 5 of 10
survivor count (T/C endpoint: median survival time, dose: 108.0 mg/kg/injection, schedule: Q01DX Z (sc), vehicle: other): 4 of 10
survivor count (T/C endpoint: median survival time, dose: 180.0 mg/kg/injection, schedule: Q01DX Z (sc), vehicle: other): 4 of 10

COc1cc([C@@H]2c3cc4c(cc3[C@H](OC(=O)CCCC(=O)O)[C@H]3COC(=O)[C@H]23)OCO4)cc(OC)c1OC
survivor count [2]: 6 of 10

O=S(=O)(Nc1ccccn1)c1ccc(N(CCCl)CCCl)cc1
survivor count [15]: 1 of 10
survivor count [13]: 3 of 10
survivor count [18]: 2 of 10
survivor count (T/C endpoint: median survival time, dose: 833.0 mg/kg/injection, schedule: Q01DX Z (sc), vehicle: methylcellulose (MC)): 6 of 10
survivor count (T/C endpoint: median survival time, dose: 1388.0 mg/kg/injection, schedule: Q01DX Z (sc), vehicle: methylcellulose (MC)): 2 of 10

O=C(O)c1ccc([N+](=O)[O-])cc1
survivor count [5]: 6 of 10
survivor count [9]: 4 of 10
survivor count [11]: 3 of 10
survivor count [14]: 4 of 10
survivor count [15]: 3 of 10
survivor count [13]: 4 of 10

CS(=O)(=O)Nc1ccc(Nc2c3ccccc3nc3cc(N)ccc23)cc1
survivor count (T/C endpoint: mean survival time, dose: 4.0 mg/kg/injection, schedule: Q01DX009 (ip), vehicle: saline): 8 of 10
survivor count (T/C endpoint: mean survival time, dose: 8.0 mg/kg/injection, schedule: Q01DX009 (ip), vehicle: saline): 8 of 10

COc1cccc(/C=N/NC(N)=S)c1
survivor count (T/C endpoint: median survival time, dose: 360.0 mg/kg/injection, schedule: Q01DX Z (sc), vehicle: water): 1 of 10
survivor count (T/C endpoint: median survival time, dose: 600.0 mg/kg/injection, schedule: Q01DX Z (sc), vehicle: water): 0 of 10

CCCCNc1ncnc2c1cnn2C
survivor count [13]: 4 of 10
survivor count [18]: 0 of 10
